# Measurements published in PubChem BioAssay AID2685 (National Center for Advancing Translational Sciences (NCATS), 2010).
# The list shows a part of the results. Shown are side measurements of this screen, not its main read-out; they come without a call. Compounds called inactive in the main read-out are mostly missing here. Words in brackets tell the shape of the fitted curve; partial curves, single points and poor fits give uncertain potencies.
# Assay: qHTS Assay for Lipid Storage Modulators in Drosophila S3 Cells;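 for cell number change: cells counted by Cell Tracker Red CMTPX staining in the red channel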
# Settings: BODIPY lipid droplet fluorescence, 18-24 h; for cell number change: measured here: cell count max response, cells fed with added oleic acid
# In short: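 Laser-scanning cytometry quantifies lipid droplet accumulation (500–530 nm total intensity; droplet/cell object ratio) in oleic acid-fed (400 uM added) Drosophila S3 cells treated with a concentration series. 20 uM Triacsin C defined 100% inhibition.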
# [1] = measured here: lipid fluorescence (Fed channel) AC50, cells fed with added oleic acid
# [2] = measured here: cell number channel AC50, cells fed with added oleic acid
Structure (SMILES),cell number change [%],AC50 [1],AC50 [2]
Cc1ccc(C(=O)O)cc1NC(=S)NC(=O)c1ccc(COc2ccccc2)cc1,18.2,,
COc1ccc(NC(=O)CN2CCN(c3ccc(C)cc3C)CC2)cc1,10.9,"29.1 µM [rising, single point]",
N#CCSc1nc2ccccc2c(=O)n1CCCC(=O)NCC1CCCO1 (stereo not drawn),26,,"0.326 µM [rising, full curve, poor fit]"
CCOC(=O)CNS(=O)(=O)Cc1ccccc1,-5.78,,
CCOC(=O)Cc1csc(NC(=O)c2ccc(Br)s2)n1,-33.1,"29.1 µM [falling, single point]","23.1 µM [falling, partial curve]"
CC1=NN(C(C#N)c2ccccc2C)C(C)(C)C1 (stereo not drawn),-21.6,"0.116 µM [falling, full curve, poor fit]",
CC(=O)Nc1ccc(/C=N/Nc2ccc(C(=O)c3c(C)cc4ccccn34)cc2[N+](=O)[O-])cc1,-0.778,"4.11 µM [falling, full curve]",
CCCCNS(=O)(=O)c1ccc2nc(SCC(=O)Nc3sccc3C#N)[nH]c2c1,-6.17,"0.461 µM [rising, full curve]",
CCOC(=O)c1cnc(SC2CC(=O)N(c3ccccc3)C2=O)nc1N (stereo not drawn),15.4,"11.6 µM [rising, partial curve, poor fit]",
Cc1nn(CC(=O)NC(=O)NC2CCCC(C)C2C)c(=O)c(C#N)c1C (stereo not drawn),3.99,"5.8 µM [rising, single point]",
COc1ccccc1CN1CC(C(=O)NCCN2CCNC2=O)CCC1=O (stereo not drawn),50.9,,"20.6 µM [rising, single point]"
CC(=O)N1c2ccccc2C2(C)C(C1(C)C)C2(Cl)Cl (stereo not drawn),-29.1,"2.06 µM [falling, full curve]",
COc1ccc(-n2c3c(c(=O)[nH]c2=O)C(NS(=O)(=O)c2ccc(Cl)cc2)(C(F)(F)F)C(=O)N3)cc1 (stereo not drawn),-2.31,"0.00411 µM [falling, full curve, poor fit]",
COc1ccc(Cl)cc1N(CC(=O)Nc1ccccc1C(=O)N1CCCC1)S(C)(=O)=O,14.6,,
COCC(CN1CCN(C2=NS(=O)(=O)c3ccccc32)CC1)OC(=O)c1ccc(OC)cc1 (stereo not drawn),14.5,,
CCOC(=O)c1c(NC(=O)c2ccccc2Br)sc2c1CCc1ccccc1-2,,"10.3 µM [rising, partial curve]","0.517 µM [rising, full curve]"
CC(C)C(C)NC(=O)COc1ccc(-c2ccccc2)cc1 (stereo not drawn),,"5.17 µM [falling, partial curve]",
COc1cc(/C=C/C(=O)N2CCCC2)cc(OC)c1OC,-0.207,"5.17 µM [rising, single point]",
Cc1ccccc1C1C(C#N)=C2N=C(N)c3c(sc4c3CCCCC4)N2C2=C1C(=O)CC(C)(C)C2 (stereo not drawn),-36.9,"13 µM [falling, partial curve]","2.31 µM [falling, full curve]"

Structure (SMILES),cell number change [%],AC50 [1],AC50 [2]
CC1=NN(c2ccc(C)cc2)C(=O)/C1=C\C=C\c1ccccc1,-41.3,"29.1 µM [falling, single point]","20.6 µM [falling, single point]"
O=C1c2ccccc2C(O)(c2ncc[nH]2)N1C1CCCCC1 (stereo not drawn),-9.61,"2.59 µM [falling, full curve, poor fit]",
CCCCOCC(O)CN1CCN(C(C)=O)CC1 (stereo not drawn),-15.4,"0.0326 µM [falling, full curve, poor fit]",
O=C(COc1ccccc1[N+](=O)[O-])N/N=C/c1cccc(OC(=O)c2ccc3c(c2)OCO3)c1,-25.2,"14.6 µM [falling, partial curve, poor fit]",
O=C(NCc1ccc2c(c1)OCO2)C1CCC(=O)N1C1CCCCC1 (stereo not drawn),0.129,"0.116 µM [rising, partial curve, poor fit]",
COc1ccccc1CN1CCSCC1,,"18.4 µM [falling, partial curve]",
COc1ccc(/C=N/NC(=O)c2sc3nc(C)cc(C)c3c2N)cc1,25.2,"3.26 µM [rising, full curve]",
CC1=C(C(=O)Nc2cc(C(=O)N3CCN(c4cccc(C)c4)C(C)C3)ccc2C)SCCO1 (stereo not drawn),7.03,,
C=CCN(c1ccccc1)S(=O)(=O)c1cccc(C(=O)NC2CCN(Cc3ccccc3)CC2)c1,8.12,"7.31 µM [rising, partial curve, poor fit]",
Cc1noc(C)c1COc1ccc(C(=O)OCC(=O)NC2CCCCC2C)cc1 (stereo not drawn),,"2.31 µM [falling, partial curve]",
CCC1C(=O)Nc2nc(-c3ccccc3)c(-c3ccccc3)n2N=C1C (stereo not drawn),27.1,"6.51 µM [rising, single point]",
CN1CCN(c2ccc(S(=O)(=O)N3CCCCC3)cc2[N+](=O)[O-])CC1,-12.4,,"0.082 µM [falling, full curve, poor fit]"
CCOc1ccc(N2C(=O)C3CCCN3C2=S)cc1 (stereo not drawn),-9.68,"0.0259 µM [rising, full curve, poor fit]",
Cc1ccc(OCCN2CCNCC2)c([N+](=O)[O-])c1,60.7,"2.31 µM [rising, partial curve]","25.9 µM [rising, single point]"
O=P(O)(CCCP(=O)(O)CCc1ccccc1)CCc1ccccc1,-31.3,"5.17 µM [falling, full curve]",
CCOC(=O)[C@H]1[C@H]2COc3ccc(Br)cc3[C@@H]2N2C(=O)c3cc(Br)ccc3NC(=O)[C@@]12C,5.41,"0.13 µM [falling, full curve, poor fit]","0.146 µM [falling, full curve]"
Cc1cccc(OCC(=O)NNc2c3ccccc3nc3ccccc23)c1,-59.8,"7.31 µM [falling, partial curve]","20.6 µM [falling, single point]"
CCOC(=O)CC(NC(C)=O)c1ccc([N+](=O)[O-])cc1 (stereo not drawn),-46.5,"29.1 µM [falling, single point]","29.1 µM [falling, single point]"

# A draw from above in order of molar mass, ascending.
Structure (SMILES),cell number change [%],AC50 [1],AC50 [2]
Cc1ccc(OCCN2CCNCC2)c([N+](=O)[O-])c1,60.7,"2.31 µM [rising, partial curve]","25.9 µM [rising, single point]"
Cc1cccc(OCC(=O)NNc2c3ccccc3nc3ccccc23)c1,-59.8,"7.31 µM [falling, partial curve]","20.6 µM [falling, single point]"
O=P(O)(CCCP(=O)(O)CCc1ccccc1)CCc1ccccc1,-31.3,"5.17 µM [falling, full curve]",
